# Experimental data from PubChem BioAssay AID624297 (National Center for Advancing Translational Sciences (NCATS), 2012).
# About 6,200 (1.8%) of roughly 340,000 compounds were called active. This list was built around the results that the source calls inconclusive (neither active nor inactive); the mix of calls is not that of the screen. Calls follow the shape of the dose curve; as a rule, active = well fitted activation curve with a large enough effect; inconclusive = small, poorly fitted or top-dose-only effect; inactive = no such curve, though single readings can be large or run the other way. A potency beside an inconclusive call is a rough fit, not a confirmed value.
# Experiment: A quantitative high throughput screen for small molecules that induce DNA re-replication in SW480 colon adenocarcinoma cells. Also: nearly all actives have a fitted effect of over 55% in size.
# Details: Hoechst DNA content imaging, 48 h; series mostly up to 46.1 µM
# Outline: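 Readout is total intensity of Hoechst-stained nuclei, excited at 405 nm and collected at 500-530 nm. Compound treatment lasted 48 hr at 37 C in 5% CO2 before staining.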
# Potency is read from the fitted curve at half-maximal effect.
row,Structure (SMILES),Potency
1,Cc1ccc(CNC(=O)CSc2nnc(CNC(=O)c3ccccc3)o2)cc1,inactive
2,Cc1c(C(=O)NCc2ccccc2CN2CCCC2)oc2c(F)cccc12,"inconclusive: 18.4 µM [activator, single point]"
3,CCCn1c(CC)nc([N+](=O)[O-])c1S(=O)(=O)c1ccccc1,"inconclusive: 2.59 µM [activator, full curve, poor fit]"
4,CC(C)c1nc(SCC(=O)c2ccc(F)cc2)c2ccccc2n1,"inconclusive: 23.1 µM [activator, partial curve, poor fit]"
5,CC1=C(C(=O)Nc2ccc(C)cc2C)C(c2cccc([N+](=O)[O-])c2)n2nc(C(=O)OC(C)C)nc2N1 (stereo not given),"inconclusive: 29.1 µM [activator, partial curve, poor fit]"
6,Cn1c(CNC(=O)CNC(=O)c2ccc(C(C)(C)C)cc2)cc(=O)n(C)c1=O,"inconclusive: 0.517 µM [activator, partial curve, poor fit]"
7,CC(=O)/C=C\c1cn(-c2ncc(C(F)(F)F)cc2Cl)c2ccccc12,"inconclusive: 29.1 µM [activator, single point]"
8,COc1cccc(COC(=O)CCNC(=O)c2ccc(Cl)cc2)c1OC,inactive
9,O=C(c1ccc(S(=O)(=O)c2cccc(Cl)c2)c([N+](=O)[O-])c1)N1CCN(c2ccccn2)CC1,inactive
10,COC(=O)c1cn(C(=O)c2cc(OC)c(OC)c(OC)c2)c2ccccc12,"inconclusive: 29.1 µM [activator, partial curve, poor fit]"
11,Cc1cc(C)n2nc(SCC(=O)N(C)Cc3ccccc3)nc2n1,"inconclusive: 29.1 µM [activator, partial curve, poor fit]"
12,N#CC1=C(N)Oc2cc3ccccc3cc2C1c1cccnc1 (stereo not given),active: 17.8 µM
13,CC(/C=C/c1ccc(N(C)C)cc1)=N\N=C1\NC(=O)CC(C(=O)Nc2ccccc2)S1 (stereo not given),"inconclusive: 20.6 µM [activator, single point]"
14,O=C(NCC1CCCO1)c1c(O)c2ccccc2[nH]c1=O (stereo not given),inactive
15,O=S(=O)(c1ccccc1)c1nc(-c2cccc(Cl)c2)oc1N1CCOCC1,"inconclusive: 32.6 µM [activator, partial curve, poor fit]"
16,CCCOC(=O)c1ccc(NC(=O)C(=O)NCC2CCCO2)cc1 (stereo not given),"inconclusive: 18.4 µM [activator, single point]"
17,COc1ccccc1Nc1nc(N)nc(CN2CCC(C)CC2)n1,inactive
18,C#CCNC(=O)C1=C[C@H](c2csc3ccccc23)C[C@H](OCc2ccc(CO)cc2)O1,"inconclusive: 16.4 µM [activator, partial curve, poor fit]"
19,CCCOc1ccc(C2C(C(=O)c3ccc(C)o3)=C(O)C(=O)N2Cc2ccco2)cc1 (stereo not given),"inconclusive: 5.8 µM [activator, full curve, poor fit]"
20,Cc1ccc(C)c(S(=O)(=O)Nc2cc(SCC(=O)O)c(O)c3ccccc23)c1,"inconclusive: 23.1 µM [activator, single point]"
21,COc1ccccc1NC(NC(=O)c1ccco1)C(=O)c1ccccc1 (stereo not given),"inconclusive: 29.1 µM [activator, single point]"
22,O=C(c1ccc(COc2ccc(Cl)cc2)cc1)N1CCCCC1,"inconclusive: 6.51 µM [activator, single point]"

# Rewritten with bars between the fields: three of the compounds above.
row | Structure (SMILES) | Potency
9 | O=C(c1ccc(S(=O)(=O)c2cccc(Cl)c2)c([N+](=O)[O-])c1)N1CCN(c2ccccn2)CC1 | inactive
17 | COc1ccccc1Nc1nc(N)nc(CN2CCC(C)CC2)n1 | inactive
22 | O=C(c1ccc(COc2ccc(Cl)cc2)cc1)N1CCCCC1 | inconclusive: 6.51 µM [activator, single point]

# More compounds

row,Structure (SMILES),Potency
1,C/C(=N\NC(=O)c1c[nH]c2ccccc12)c1ccco1,active: 2.91 µM
2,COCCN1CC(=O)N(c2cccc(C)c2C)C(c2ccc(Cl)cc2)C1=O (stereo not given),inactive
3,CN(CC(=O)Nc1ccccc1Cl)C(=O)COC(=O)Cc1c(F)cccc1Cl,inactive
4,O=C(c1cccc(S(=O)(=O)N2CCc3ccccc3C2)c1)N1CCN(c2ccccc2)CC1,inactive
5,CCOc1ccccc1NC(=O)C(NCC1CCCCC1)c1ccccc1 (stereo not given),"inconclusive: 29.1 µM [activator, single point]"
6,CCn1c(-c2cc3ccccc3cc2O)n[nH]c1=S,inactive
7,CCOC(=O)COc1ccc(S(=O)(=O)N2CCN(C(=O)OCC)CC2)cc1,inactive
8,CC(C)OC(=O)c1ccc2nc3ccccc3nc2c1,"inconclusive: 5.8 µM [activator, full curve, poor fit]"
9,COc1ccc(C(=O)NC2CCCc3c2cnn3-c2ccc(C)c(C)c2)c(OC)c1OC (stereo not given),"inconclusive: 20.6 µM [activator, single point]"
10,COc1ccc(C(=O)NC(=S)NCc2cccnc2)cc1Br,"inconclusive: 1.46 µM [activator, partial curve, poor fit]"
11,CCOC(=O)C1CCCN(C(=O)c2cc(-c3ccco3)nc3ccccc23)C1 (stereo not given),inactive
12,CCOc1ccc2c(c1)c(=O)c(S(=O)(=O)c1ccc(CC)cc1)cn2C,"inconclusive: 29.1 µM [activator, single point]"
13,Cc1ccc(C)c(C(=O)O/N=C(\N)c2ccc(Br)cc2)c1,"inconclusive: 29.1 µM [activator, single point]"
14,CCOC(=O)N1CCN(C(=O)CN(c2cccc(C(F)(F)F)c2)S(=O)(=O)c2ccccc2)CC1,"inconclusive: 25.9 µM [activator, partial curve, poor fit]"
15,CC(C)C(=O)Nc1ccc(N2CCOCC2)c(S(=O)(=O)Nc2ccccc2Cl)c1,"inconclusive: 23.1 µM [activator, single point]"
16,O=C(c1cc(Br)ccc1OC(F)F)N1CCN2CCCC2C1 (stereo not given),"inconclusive: 29.1 µM [activator, single point]"
17,Cc1cccc(NC(=O)c2nc[nH]c2C(=O)NCCCCNC(=O)c2[nH]cnc2C(=O)Nc2cccc(C)c2)c1,"inconclusive: 4.11 µM [activator, full curve]"
18,Cc1cccc(Oc2nc(-c3ccccn3)nc3ccccc23)c1,inactive
19,C[C@@H]1CC[C@H]2C(=O)N3[C@@H](CC[C@@H](C)[C@@H]3c3ccc(Br)cc3)C(=O)N2[C@H]1c1ccc(Br)cc1,"inconclusive: 29.1 µM [activator, partial curve, poor fit]"
20,COc1ccc(OC)c(C2C=C(c3ccc(C)c(C)c3)Nc3nnnn32)c1 (stereo not given),active: 7.31 µM
21,COc1ccc2c(c1)OC[C@H]1[C@H]2N2C(=O)c3ccccc3NC(=O)[C@@]2(C)[C@H]1c1ccccc1,"inconclusive: 18.4 µM [activator, single point]"
22,Cc1cccc(C(=O)NNC(=O)c2cc3cc4ccccc4nc3s2)c1,"inconclusive: 5.8 µM [activator, partial curve, poor fit]"

# As entered above.
# In Potency, COc1ccc(C(=O)NC2CCCc3c2cnn3-c2ccc(C)c(C)c2)c(OC)c1OC (stereo not given) shows inconclusive: 20.6 µM [activator, single point]
# In Potency, Cc1c(C(=O)NCc2ccccc2CN2CCCC2)oc2c(F)cccc12 shows inconclusive: 18.4 µM [activator, single point]

# Further structures:

row,Structure (SMILES),Potency
1,CCCCCNC(=O)c1cn(CC)c2cc(N3CCN(C)CC3)c(F)cc2c1=O,"inconclusive: 23.1 µM [activator, partial curve, poor fit]"
2,COCc1cc(=O)[nH]c(Cc2c(Cl)cccc2Cl)n1,inactive
3,CCN=C1Sc2nc3ccc(OCC)cc3cc2CN1CCOC,"inconclusive: 20.6 µM [activator, single point]"
4,CC1CN(CCCCSc2ccc(Cl)cc2)CC(C)O1 (stereo not given),"inconclusive: 1.84 µM [activator, full curve, poor fit]"
5,COc1ccc(/C=N/NC(=O)c2cc(-c3ccccc3)nc3ccccc23)c(C(=O)O)c1OC,inactive
6,COCC(C)OC(=O)c1c(N)n(CCCN2CCOCC2)c2nc3ccccc3nc12 (stereo not given),"inconclusive: 14.6 µM [activator, partial curve, poor fit]"
7,CN(C)/C=C\C(=C/C(=O)C(F)(F)F)Nc1ccccc1Oc1ccccc1,"inconclusive: 13 µM [activator, partial curve]"
8,CN1C(=O)S/C(=C\c2ccc(-n3cncn3)cc2)C1=O,inactive
9,CCCS(=O)(=O)c1c(S(=O)(=O)CCC)c2c(N)cccn2c1C(=O)c1ccc(F)cc1,"inconclusive: 7.31 µM [activator, partial curve, poor fit]"
10,COc1cc(-c2noc(C3CCCN(C(=O)c4ccccc4)C3)n2)cc(OC)c1OC (stereo not given),inactive
11,Cc1ccc(C(=O)NC(C)c2ccc3c(c2)OCO3)s1 (stereo not given),inactive
12,Cc1cccc(N(CC(=O)NCC2CCCO2)C(=O)CNS(=O)(=O)c2ccc(Cl)cc2)c1 (stereo not given),inactive
13,CCOC(=O)c1c(-c2ccc(C)o2)csc1NC(=S)NC(=O)N(C)C,"inconclusive: 35.5 µM [activator, single point]"
14,CCOC(=O)N1C(=O)[C@](CC)(c2ccccc2)N1C(=O)OCC,"inconclusive: 29.1 µM [activator, single point]"
15,O=C(CN1C(=O)NC2(CCCC2)C1=O)NNC(=O)c1ccccc1F,inactive
16,O=[N+]([O-])c1ccc(-c2nc(C(Cl)Cl)c3ccccc3n2)cc1,"inconclusive: 1.84 µM [activator, full curve]"
17,CCOC(=O)C(C)(C)N(Cc1ccc(Cl)cc1)S(=O)(=O)c1ccc(Cl)c([N+](=O)[O-])c1,"inconclusive: 29.1 µM [activator, single point]"
18,CCc1nnc(NC(=O)c2ccc(COc3cccc(C)c3)o2)s1,"inconclusive: 0.291 µM [activator, full curve, poor fit]"
19,O=C(c1cccc(F)c1)N1CCN(c2ccc([N+](=O)[O-])c(N3CCCCC3)c2)CC1,"inconclusive: 32.6 µM [activator, partial curve, poor fit]"
20,CCOC(=O)C1=C(C)NC(C)=C(C(=O)OCC)C1C(=O)OCC(=O)N(C)C,"inconclusive: 18.4 µM [activator, single point]"
21,CCN(C1CCCCC1)S(=O)(=O)c1cc2c3c(c1)CCN3C(=O)CC2,"inconclusive: 0.0046 µM [activator, full curve, poor fit]"
